Data as given in PubChem BioAssay AID504444 (National Center for Advancing Translational Sciences (NCATS), 2011).
In all, about 360,000 compounds went through this assay and about 7,500 (2.1%) were called active. The shares of active, inactive and inconclusive entries below differ from those in the screen. Calls come from the whole dose curve; as a rule, active = well fitted inhibition curve with a large enough effect; inconclusive = small, poorly fitted or top-dose-only effect, or effect the other way; inactive = flat fitted curve, though single readings scatter. Where the call is inconclusive, the potency comes from a doubtful curve fit.

Assay: Nrf2 qHTS screen for inhibitors; note: nearly all actives have a fitted effect of over 60% in size
Settings: A549 ARE-Fluc reporter, luciferase luminescence, 18-24 h; series mostly up to 46 µM
Outline: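 Reporter: ARE-Fluc in A549. Exposure: 18-24 h, 37 °C, 5% CO2, 5% FBS OPTI-MEM. Readouts: fluorescent cytotoxicity (CellTiter-Fluor), then luminescent Nrf2 signal after BugLite.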
Potency is the fitted concentration of half-maximal effect.

| Structure (SMILES) | Potency |
| --- | --- |
| Cc1ccc(C)c(Cn2c(C(=O)O)c(CNCc3cccs3)c3ccccc32)c1 | inactive |
| COc1ccc2nc(-c3ccccc3)cc(C(=O)OCC(=O)N3CC(C)OC(C)C3)c2c1 (stereo not given) | inconclusive: 29.1 µM [falling, single point] |
| O=C(Cn1nc(-c2ccc(N3CCOCC3)c([N+](=O)[O-])c2)c2ccccc2c1=O)N1CCCCC1 | inconclusive: 5.8 µM [falling, full curve, poor fit] |
| CN(C)C1(CN=Cc2cc(Cl)cc([N+](=O)[O-])c2O)CCCCC1 | inactive |
| CN(C(=O)c1cccc(NC(=O)Cc2ccc([N+](=O)[O-])cc2)c1)C1CCC1 | inconclusive: 18.4 µM [falling, single point] |
| OCC1(CCCc2ccccc2)CCN(C2CCSCC2)CC1 | inconclusive: 29.1 µM [activator, single point] |
| Cc1ccc(/C(N)=N/OC(=O)Cc2cccs2)cc1 | inconclusive: 14.6 µM [activator, single point] |
| Cc1cccc(CCN(C(=O)c2csnn2)C(C(=O)NC2CCCC2)c2ccco2)c1 (stereo not given) | inconclusive: 9.2 µM [falling, partial curve] |
| COc1ccc(C2C=C(c3ccccc3)Nc3nc(NC(=O)/C=C/c4ccccc4Cl)nn32)cc1 (stereo not given) | inactive |
| Cc1ccc(Cn2c(NCCc3ccccc3)nc3c2c(=O)n(C)c(=O)n3C)cc1 | active: 14.6 µM |
| CCc1ccc2c(c1)C(=O)CCC2 | inactive |
| C[C@H](CO)N1C[C@H](C)[C@@H](CN(C)S(C)(=O)=O)Oc2c(NC(=O)Nc3ccc4c(c3)OCO4)cccc2C1=O | inactive |
| O=C(O)CC(CCc1ccccc1)OC1OC(CO)C(O)C(O)C1O (stereo not given) | inconclusive: 2.91 µM [falling, full curve, poor fit] |
| CC[n+]1cc(C)ccc1/C=C/c1ccc(N(C)C)cc1 | active: 4.11 µM |
| Cc1nnc(SCC2=C(C(=O)O)N3C(=O)C(NC(=O)COc4ccc(F)cc4)C3SC2)s1 (stereo not given) | inactive |
| COc1ccc(CNC(=O)Nc2cn(CC(C)C)c(=O)c3ccccc23)cc1 | inconclusive: 5.8 µM [activator, partial curve, poor fit] |
| COc1ccc(CNC(=O)C(c2ccc(C)cc2)N(Cc2cccs2)C(=O)c2ccc3c(c2)OCCO3)cc1 (stereo not given) | inconclusive: 16.4 µM [falling, partial curve, poor fit] |
| O=C1NC(=O)/C(=C\c2ccccc2OCc2ccc([N+](=O)[O-])cc2)N1 | inconclusive: 23.1 µM [falling, partial curve, poor fit] |
| Cc1cc(Cl)ccc1OCC(=O)N1CCC(c2nc3ccccc3s2)CC1 | inconclusive: 29.1 µM [falling, single point] |
| COCCCN=Cc1c(C)[nH]n(-c2ccc(Br)c(C)c2)c1=O | inconclusive: 0.651 µM [activator, full curve, poor fit] |
| O=C(Nc1cccc(-c2nc3ccccc3o2)c1)C(F)(F)F | inconclusive: 14.6 µM [activator, partial curve, poor fit] |
| Cc1c(Cl)ccc2c1NC(=O)[C@]21N[C@@H](Cc2ccccc2)[C@H]2C(=O)N(c3ccc(F)cc3)C(=O)[C@H]21 | inconclusive: 18.4 µM [falling, single point] |

Part of the list above in a different format.
Structure (SMILES),Potency
Cc1ccc(C)c(Cn2c(C(=O)O)c(CNCc3cccs3)c3ccccc32)c1,inactive
OCC1(CCCc2ccccc2)CCN(C2CCSCC2)CC1,"inconclusive: 29.1 µM [activator, single point]"
Cc1ccc(/C(N)=N/OC(=O)Cc2cccs2)cc1,"inconclusive: 14.6 µM [activator, single point]"
Cc1cccc(CCN(C(=O)c2csnn2)C(C(=O)NC2CCCC2)c2ccco2)c1 (stereo not given),"inconclusive: 9.2 µM [falling, partial curve]"
Cc1ccc(Cn2c(NCCc3ccccc3)nc3c2c(=O)n(C)c(=O)n3C)cc1,active: 14.6 µM
CCc1ccc2c(c1)C(=O)CCC2,inactive
C[C@H](CO)N1C[C@H](C)[C@@H](CN(C)S(C)(=O)=O)Oc2c(NC(=O)Nc3ccc4c(c3)OCO4)cccc2C1=O,inactive
O=C(O)CC(CCc1ccccc1)OC1OC(CO)C(O)C(O)C1O (stereo not given),"inconclusive: 2.91 µM [falling, full curve, poor fit]"
CC[n+]1cc(C)ccc1/C=C/c1ccc(N(C)C)cc1,active: 4.11 µM
Cc1nnc(SCC2=C(C(=O)O)N3C(=O)C(NC(=O)COc4ccc(F)cc4)C3SC2)s1 (stereo not given),inactive
COc1ccc(CNC(=O)Nc2cn(CC(C)C)c(=O)c3ccccc23)cc1,"inconclusive: 5.8 µM [activator, partial curve, poor fit]"
O=C1NC(=O)/C(=C\c2ccccc2OCc2ccc([N+](=O)[O-])cc2)N1,"inconclusive: 23.1 µM [falling, partial curve, poor fit]"
Cc1cc(Cl)ccc1OCC(=O)N1CCC(c2nc3ccccc3s2)CC1,"inconclusive: 29.1 µM [falling, single point]"
COCCCN=Cc1c(C)[nH]n(-c2ccc(Br)c(C)c2)c1=O,"inconclusive: 0.651 µM [activator, full curve, poor fit]"
O=C(Nc1cccc(-c2nc3ccccc3o2)c1)C(F)(F)F,"inconclusive: 14.6 µM [activator, partial curve, poor fit]"

Not a retest: entries from further up.

| Structure (SMILES) | Potency |
| --- | --- |
| C[C@H](CO)N1C[C@H](C)[C@@H](CN(C)S(C)(=O)=O)Oc2c(NC(=O)Nc3ccc4c(c3)OCO4)cccc2C1=O | inactive |
| O=C(O)CC(CCc1ccccc1)OC1OC(CO)C(O)C(O)C1O (stereo not given) | inconclusive: 2.91 µM [falling, full curve, poor fit] |

Later entries:

| Structure (SMILES) | Potency |
| --- | --- |
| COc1ccc(/C=C/c2nc3ccccc3c(=O)o2)cc1 | inconclusive: 32.6 µM [falling, single point] |
| COc1cccc(C(C(=O)NCC2CCCO2)N(C(=O)Cn2nnc3ccccc32)c2ccccc2C(C)=O)c1OC (stereo not given) | inconclusive: 29.1 µM [activator, single point] |
| Brc1ccc2nc(CSc3ncn[nH]3)cn2c1 | inconclusive: 16.4 µM [activator, partial curve, poor fit] |
| Cc1cc(C)c(NC(=O)CSc2nncn3c2cc2oc(C)cc23)c(C)c1 | inactive |
| Cn1c(SCc2nc(-c3ccc(Br)cc3)no2)nnc1-c1ccco1 | inconclusive: 23.1 µM [falling, partial curve, poor fit] |
| Cc1ccn2c(Nc3ccc(C(C)C)cc3)c(-c3cccnc3)nc2c1 | inconclusive: 18.4 µM [falling, single point] |
| COCCN1Cc2cccc(C(=O)Nc3cccc(OC)c3)c2C1=O | inconclusive: 32.6 µM [falling, single point] |
| COC(=O)c1cc(NC(=O)CC2CCCC2)cc(C(=O)OC)c1 | inconclusive: 8.2 µM [falling, partial curve] |
| COc1cc(C2=NC(CO)(CO)CO2)cc(OC)c1OC | inconclusive: 6.51 µM [falling, single point] |
| Cc1ccc2cc(C(c3nnnn3Cc3ccccc3)N3CCN(c4ccccc4)CC3)c(=O)[nH]c2c1 (stereo not given) | inconclusive: 18.4 µM [falling, single point] |
| Cc1ccc2cccc(NC(=O)C(C)Oc3ccc(Cl)cc3Cl)c2n1 (stereo not given) | inactive |
| O=C(NCCC1CCCC1)c1cccs1 | inconclusive: 3.66 µM [activator, single point] |
| N#CC(c1nc2ccccc2nc1OCCO)S(=O)(=O)c1ccccc1 (stereo not given) | inconclusive: 23.1 µM [falling, single point] |
| Cc1nnc(SCc2ccc(F)cc2Cl)s1 | inconclusive: 20.6 µM [activator, partial curve] |
| COc1ccccc1C(=O)Nc1c(C(=O)Nc2ccccc2F)oc2ccccc12 | inactive |
| Cc1ccc(NC(=O)CCSc2nnc(Cc3ccccc3)o2)cc1 | inactive |
| O=C(COc1ccc(S(=O)(=O)Nc2ccc(Cl)cc2)cc1)N1CCOCC1 | inconclusive: 18.4 µM [falling, partial curve] |
| O=C(CCc1nc2ccccc2c(=O)[nH]1)N1CCN(c2ccccc2Cl)CC1 | inconclusive: 25.9 µM [falling, single point] |
| CC1=C(C(=O)OC2CCCCCCC2)C(c2cc3c(cc2Br)OCO3)CC(=O)N1 (stereo not given) | active: 20.6 µM |
| CCC(=O)Oc1ccc(C2Nc3ccccc3-c3nnc(SC)nc3O2)cc1 (stereo not given) | inactive |
| COc1ccc(C)cc1NC(=O)Cn1cnc2sc(C)c(S(=O)(=O)N3CCOCC3)c2c1=O | inconclusive: 0.13 µM [falling, full curve, poor fit] |
| Cc1ccc2nc(-c3cc(NC(=O)COc4ccc(C)c(C)c4)ccc3Cl)oc2c1 | inconclusive: 1.64 µM [activator, full curve, poor fit] |

| Structure (SMILES) | Potency |
| --- | --- |
| COc1ccc(CCn2c(=N)c(C(=O)NCC3CCCO3)cc3c(=O)n4cccc(C)c4nc32)cc1OC (stereo not given) | inconclusive: 0.58 µM [falling, full curve, poor fit] |
| Cc1nc(N2CCCCC2)sc1C(=O)c1cccc([N+](=O)[O-])c1 | active: 2.91 µM |
| CCOC(=O)c1ccc(S(=O)(=O)NNC(=O)c2ccc3c(c2)nc(C)n3CC)cc1 | inactive |
| OC1CCCN(CC(O)c2ccccc2)C1 (stereo not given) | inconclusive: 3.26 µM [falling, partial curve, poor fit] |
| CCc1nn(CCCC(=O)N2CCN(c3cccc(OC)c3)CC2)c(=O)c2cc3occc3n12 | inactive |
| Cc1c(-c2nc(-c3ccc4c(c3)OCO4)no2)nnn1-c1ccc(C(C)C)cc1 | inconclusive: 29.1 µM [activator, single point] |
| Cc1cccc(NC(=O)C(Cc2ccccc2)NS(=O)(=O)c2ccc3c(c2)c(=O)n(C)c(=O)n3C)c1 (stereo not given) | inactive |
| CCNC(=S)NNC(=O)c1cc(CC(C)C)nc2ccccc12 | inconclusive: 23.1 µM [falling, partial curve, poor fit] |
| N#CC(C#N)=C1c2cc(S(N)(=O)=O)ccc2-c2ccc(S(N)(=O)=O)cc21 | inconclusive: 10.3 µM [falling, partial curve, poor fit] |
| CCc1cccc2c(C(=O)COC(=O)C3=NNC(=O)CC3)c[nH]c12 | inconclusive: 4.61 µM [falling, full curve, poor fit] |
| O=c1c2ccccc2nc(/C=C/c2ccc3c(c2)OCO3)n1CCCO | inconclusive: 9.2 µM [falling, partial curve, poor fit] |
| CC(C(=O)NC(N)=O)N1C(=O)NC(c2ccccc2)(c2ccccc2)C1=O (stereo not given) | inconclusive: 29.1 µM [activator, single point] |
| CC(=O)c1cccc(NS(=O)(=O)c2cc3c(cc2C)N(C(C)=O)CCO3)c1 | active: 18.4 µM |
| Cc1ccc(NC(=O)N2CCC(CN3CCCC3)CC2)c(C)c1 | inactive |
| CCCCCCn1c(-c2ccco2)nc2oc3cc(OC)ccc3c(=O)c2c1=O | inconclusive: 32.6 µM [falling, single point] |
| Cc1ccc(-c2nn(-c3ccccc3)cc2CO)cc1 | inconclusive: 8.2 µM [activator, partial curve] |
| CCOC(=O)c1nn(-c2ccc(Br)cc2)cc1C(=O)c1cccc2ccccc12 | inconclusive: 4.11 µM [activator, full curve, poor fit] |
| CCCN1C(=O)/C(=C/c2cc(C)n(C)c2C)SC1=Nc1ccc(OC)cc1 | inconclusive: 16.4 µM [falling, single point] |
| COc1cccc(NC(=O)CSc2nc(-c3ccccc3Cl)nc3c2Cc2c(CO)cnc(C)c2O3)c1 | inconclusive: 29.1 µM [activator, single point] |
| CCOc1ccc(-n2c(SCC(N)=O)nc3c(oc4ccccc43)c2=O)cc1 | inconclusive: 3.66 µM [falling, full curve, poor fit] |
| CCCn1c(SCC(=O)Nc2ccc(C(=O)Nc3ccccc3OC)cc2)n[nH]c1=O | inconclusive: 9.2 µM [falling, partial curve] |
